# For at least one compound, name, drawing or mass did not settle the structure.
# The chains behind the UniProt entries cited, without tags or fusion partners.
# UniProt Q86WV6, whole entry H232R: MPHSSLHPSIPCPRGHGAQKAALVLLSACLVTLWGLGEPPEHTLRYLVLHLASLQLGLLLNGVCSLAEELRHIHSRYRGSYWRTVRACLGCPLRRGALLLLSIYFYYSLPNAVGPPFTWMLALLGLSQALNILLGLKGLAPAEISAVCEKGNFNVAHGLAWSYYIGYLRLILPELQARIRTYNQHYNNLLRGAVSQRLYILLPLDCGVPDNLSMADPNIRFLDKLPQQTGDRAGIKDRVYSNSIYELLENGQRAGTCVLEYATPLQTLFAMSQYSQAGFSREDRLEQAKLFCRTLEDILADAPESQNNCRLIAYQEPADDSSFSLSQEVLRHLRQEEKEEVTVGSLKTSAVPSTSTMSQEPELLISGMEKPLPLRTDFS
# Biological target: T1, hSTING (Homo sapiens, UniProt Q86WV6)
# T1 construct: SUMO; made in house; host or cells: E. coli Rosetta 2 (pLysS)
# Assay: STING based fluorescence polarization assay (F-c-di-GMP probe displacement)
# Format: binding
# Conditions: 20 μM compound, 50 nM probe, 10 μM STING, 5 minutes; compared to HSD1077
# Procedure: As a preliminary screen, 20 μM of compounds and 50 nM of the probe were incubated with 10 μM of STING for 5 minutes prior to evaluation of fluorescence anisotropy.
# 50 nM of 2′-Fluo-AHC-c-diGMP (Biolog) was incubated with 10 μM hSTING and 20 μM of screening compounds in dimethyl sulfoxide (DMSO) for 5 minutes in 1× Phosphate buffered saline at room temperature. […] Anisotropy was normalized via equating measurements with 0 μM hSTING to zero. […] Anisotropy was converted to a fraction bound by F-c-di-GMP using the following equation: […]
# wherein r refers to the anisotropy value at 10 μM hSTING concentration upon compound addition, rfree refers to the anisotropy value of unbound fluorophore, and Q refers to the ratio of fluorescence intensities between bound and free fluorophore.
row,"STING binding (fraction of F-c-di-GMP probe bound, Fbound), in words",Structure (SMILES)
1,significant decrease in STING binding,"NC1CCc2c(c(-c3cn[nH]c3)nc3ccc4[nH]ncc4c23)C1 (centres unmarked) [Compound 5, 7-(1H-pyrazol-4-yl)-8,9,10,11-tetrahydro-3H-pyrazolo[4,3-a]phenanthridin-9-amine]"
2,did not affect STING binding,"CC1CCc2c(c(-c3cn[nH]c3)nc3ccc4[nH]ncc4c23)C1 (centres unmarked) [Compound 15, 7-(1H-pyrazol-4-yl)-8,9,10,11-tetrahydro-3H-pyrrolo[3,4-a]phenanthridine-9-carbonitrile]"

# — patent publication US20260274838A1 (PURDUE RESEARCH FOUNDATION, priority 2023, published 2026)
